The test system of this assay is CD2F1 mice, L1210 leukemia ip, survival T/C. Kind of assay: NCI In Vivo Anticancer Drug Screen. Data for tumor model L1210 Leukemia (intraperitoneal) in CD2F1 (CDF1) mice. The note with it: T/C endpoint: mean survival time, higher T/C = longer survival. In a few lines: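 Mice carrying a transplanted tumor received test compound or vehicle alone. The value is the measurement in the treated group divided by that in the vehicle-treated control group.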

Setting [1] is: dose: 200.0 mg/kg/injection, schedule: Q01DX009 (ip), vehicle: saline with Tween-80.
[2] abbreviates: dose: 400.0 mg/kg/injection, schedule: Q04DX003 (ip), vehicle: saline with Tween-80.
[3] abbreviates: dose: 100.0 mg/kg/injection, schedule: Q04DX002 (ip), vehicle: saline with Tween-80.
[4] abbreviates: dose: 100.0 mg/kg/injection, schedule: Q04DX003 (ip), vehicle: saline with Tween-80.
Where [5] appears, read: dose: 200.0 mg/kg/injection, schedule: Q04DX002 (ip), vehicle: saline with Tween-80.
[6] abbreviates: dose: 400.0 mg/kg/injection, schedule: Q04DX002 (ip), vehicle: saline with Tween-80.
[7] abbreviates: dose: 200.0 mg/kg/injection, schedule: Q04DX003 (ip), vehicle: saline with Tween-80.

The list does not hold the whole screen: it is rich in T/C values a quarter to a half above the control, in often repeated tests (any T/C) and in doses without a T/C. Further doses and runs are listed elsewhere. T/C is the treated group as % of the vehicle group. Some doses have a count of surviving animals in place of a T/C: the source files T/C as zero there, which appears to mark a toxic dose or a test without result, not a measured value. Some survivor counts are full or nearly so, which does not show that the dose was tolerated: the source hardly ever lists a survival T/C far under the control, and the zero likely stands for such cases as well. Survivors were counted at the toxicity check, usually on the fifth day, unless a day is given; later deaths do not show. Schedules are NCI's codes, taken here to give the interval after Q, in days (D) or hours (H), and the number of doses after X. Some doses were run more than once; the values are given in rising order. Where survival is the endpoint, the PubChem record calls one and a half times the control and up active, and a quarter to a half above the control has no call in these data; cut-offs in other NCI protocols can differ. Some T/C values are followed by the survivors on the day toxicity was checked, most often the fifth; without a count, all were alive then.

As for `CC([NH-])C(C)[NH-].CC([NH-])C(C)[NH-].[Cl][Co][Cl]` (configuration not stated), the T/C (dose: 200.0 mg/kg/injection, schedule: Q04DX002 (ip), vehicle: saline) was 132 % of control [2 of 3 alive]. In addition, the survivor count (dose: 400.0 mg/kg/injection, schedule: Q04DX002 (ip), vehicle: saline) is 0 of 3.
In the case of `CCCCCCCCCCCCCCCC(=O)N1CCN(C)CC1`, the survivor count is, setting by setting: under setting [1], 3 of 6; under setting [2], 2 of 6.
For the compound `N=[N+]=CC(=O)CCC(NC(=O)C(CCC(=O)C=[N+]=N)NC(=O)CCC(N)C(=O)O)C(=O)O` (configuration not stated), the T/C is 127 % of control (dose: 0.05 mg/kg/injection, schedule: Q01DX009 (ip), vehicle: other); 137 and 140 % of control (dose: 0.1 mg/kg/injection, schedule: Q01DX009 (ip), vehicle: other); 134 % of control (dose: 0.1 mg/kg/injection, schedule: Q01DX009 (ip), vehicle: water); 145 % of control (dose: 0.1 mg/kg/injection, schedule: Q01DX009 (sc), vehicle: water); 145 % of control (dose: 0.1 mg/kg/injection, schedule: Q01DX017 (ip), vehicle: saline, evaluated on day 5); 145 % of control (dose: 0.1 mg/kg/injection, schedule: Q01DX017 (ip), vehicle: saline, evaluated on day 22). Further, the T/C was 134 % of control (dose: 0.2 mg/kg/injection, schedule: Q01DX009 (ip), vehicle: water); 130 % of control (dose: 0.8 mg/kg/injection, schedule: Q03HX024 (ip), vehicle: water); 138 % of control (dose: 1.6 mg/kg/injection, schedule: Q03HX016 (ip), vehicle: water); 127 % of control (dose: 3.1 mg/kg/injection, schedule: Q03HX016 (ip), vehicle: water); 140 % of control (dose: 12.5 mg/kg/injection, schedule: Q08DX002 (ip), vehicle: water); 142 % of control (dose: 25.0 mg/kg/injection, schedule: Q01DX001 (ip), vehicle: water). Moreover, the T/C (dose: 25.0 mg/kg/injection, schedule: Q01DX001 (oral), vehicle: water) is 128 % of control; the T/C (dose: 25.0 mg/kg/injection, schedule: Q01DX001 (sc), vehicle: water) was 141 % of control; the T/C (dose: 50.0 mg/kg/injection, schedule: Q01DX001 (ip), vehicle: water) was 136 % of control; the T/C (dose: 50.0 mg/kg/injection, schedule: Q01DX001 (oral), vehicle: water) is 132 % of control; the T/C (dose: 50.0 mg/kg/injection, schedule: Q01DX001 (sc), vehicle: water) is 144 % of control [9 of 10 alive]; the T/C (dose: 50.0 mg/kg/injection, schedule: Q04DX003 (ip), vehicle: water) was 149 % of control. Also, the T/C is 137 % of control [9 of 10 alive] (dose: 100.0 mg/kg/injection, schedule: Q01DX001 (ip), vehicle: water) and 140 % of control [8 of 10 alive] (dose: 200.0 mg/kg/injection, schedule: Q08DX002 (ip), vehicle: water). Moreover, the survivor count is, setting by setting: (dose: 0.8 mg/kg/injection, schedule: Q01DX009 (oral), vehicle: water) 10 of 10; (dose: 0.8 mg/kg/injection, schedule: Q01DX009 (sc), vehicle: water) 9 of 10; (dose: 1.0 mg/kg/injection, schedule: Q01DX009 (ip), vehicle: other) 6 of 6; (dose: 6.25 mg/kg/injection, schedule: Q03HX008 (ip), vehicle: water) 4 of 10; (dose: 6.25 mg/kg/injection, schedule: Q03HX016 (ip), vehicle: water) 4 of 10; (dose: 6.25 mg/kg/injection, schedule: Q03HX024 (ip), vehicle: water) 6 of 10. Moreover, the survivor count runs as follows: (dose: 12.5 mg/kg/injection, schedule: Q03HX008 (ip), vehicle: water) 3 of 10; (dose: 12.5 mg/kg/injection, schedule: Q03HX016 (ip), vehicle: water) 4 of 10; (dose: 12.5 mg/kg/injection, schedule: Q03HX024 (ip), vehicle: water) 3 of 10; (dose: 25.0 mg/kg/injection, schedule: Q03HX008 (ip), vehicle: water) 1 of 10; (dose: 25.0 mg/kg/injection, schedule: Q03HX016 (ip), vehicle: water) 2 of 10; (dose: 50.0 mg/kg/injection, schedule: Q03HX008 (ip), vehicle: water) 1 of 10. The survivor count runs as follows: (dose: 200.0 mg/kg/injection, schedule: Q01DX001 (sc), vehicle: water) 9 of 10; (dose: 400.0 mg/kg/injection, schedule: Q01DX001 (oral), vehicle: water) 5 of 10; (dose: 400.0 mg/kg/injection, schedule: Q01DX001 (sc), vehicle: water) 4 of 10.
As for `CCOC(=O)c1ccc(NC(=O)Oc2cc3ccccc3cc2C(=O)Nc2ccccc2)cc1`, the survivor count is 3 of 3 (dose: 25.0 mg/kg/injection, schedule: Q04DX002 (ip), vehicle: saline with Tween-80); 6 of 6 (dose: 50.0 mg/kg/injection, schedule: Q04DX003 (ip), vehicle: saline with Tween-80); 3 of 3 under setting [3]; 6 of 6 under setting [4]; 6 of 6 (dose: 200.0 mg/kg/injection, schedule: Q01DX001 (ip), vehicle: saline with Tween-80); 3 of 3 under setting [5]. Besides, the survivor count under setting [6] is 3 of 3 and 6 of 6. In addition, the T/C under setting [3] is 86, 87, 105 % of control.
For the compound `CCN(CC)CCOc1ccc(C2=CC3(CCCCC3)c3ccccc32)cc1`, the survivor count is reported as 0 of 3 (dose: 50.0 mg/kg/injection, schedule: Q04DX002 (ip), vehicle: saline with Tween-80); 1 of 3 under setting [3]; 1 of 3 under setting [5]; 0 of 3 under setting [6].
`CC(CCC(C)OS(C)(=O)=O)OS(C)(=O)=O` (configuration not stated): the T/C (dose: 8.0 mg/kg/injection, schedule: Q01DX009 (ip), vehicle: saline) was 126 % of control.
For `OC1CNCc2cc3c(cc21)OCO3` (configuration not stated), the survivor count (dose: 400.0 mg/kg/injection, schedule: Q01DX001 (ip), vehicle: saline) was 2 of 6.
In the case of `COc1cc(CNC(=O)/C(C)=C/Cl)ccc1O`, the survivor count was 6 of 6 under setting [4], 3 of 6 under setting [7] and 1 of 6 under setting [2].
`C=C(Br)CNC(=O)C(=O)OCC`: the T/C under setting [7] was 134 % of control. The survivor count under setting [2] is given as 3 of 6.
For the compound `c1ccc([Si]2(c3ccccc3)c3ccccc3-c3ccccc32)cc1`, the survivor count (dose: 400.0 mg/kg/injection, schedule: Q01DX009 (ip), vehicle: saline with Tween-80) is given as 6 of 6.
Take `CN(C)[C@@H]1C(=O)C(C(=O)NCNc2nc3n[nH]nc3c(=O)[nH]2)=C(O)[C@@]2(O)C(=O)C3=C(O)c4c(O)cccc4[C@@](C)(O)[C@H]3C[C@@H]12`: the T/C under setting [1] was 131 % of control.
For the compound `O=NN(CCCCl)C(=O)Nc1ccccc1`, the survivor count (dose: 300.0 mg/kg/injection, schedule: Q01DX001 (ip), vehicle: carboxymethylcellulose (CMC)) is reported as 5 of 6; the survivor count (dose: 400.0 mg/kg/injection, schedule: Q01DX001 (ip), vehicle: carboxymethylcellulose (CMC)) was 4 of 6; the survivor count (dose: 500.0 mg/kg/injection, schedule: Q01DX001 (ip), vehicle: carboxymethylcellulose (CMC)) is reported as 0 of 6; the survivor count (dose: 800.0 mg/kg/injection, schedule: Q01DX001 (ip), vehicle: carboxymethylcellulose (CMC)) was 0 of 6; the survivor count (dose: 1000.0 mg/kg/injection, schedule: Q01DX001 (ip), vehicle: carboxymethylcellulose (CMC)) is 0 of 6. Also, for the setting “dose: 600.0 mg/kg/injection, schedule: Q01DX001 (ip), vehicle: carboxymethylcellulose (CMC)”, the T/C is 127 % of control [5 of 6 alive].
Take `COC(=O)C(N)Cc1ccc(O)c(O)c1` (configuration not stated): for the setting “dose: 800.0 mg/kg/injection, schedule: Q01DX009 (ip), vehicle: saline”, the T/C was 125 % of control [4 of 6 alive].

(Values after PubChem BioAssay AID256 (DTP/NCI, 2004).)
